Laboratory results as given in paper PMC4823752.
These are yes or no findings as the source states them, for the method shown. In cells and extracts the contact can be indirect.

Chains of the proteins cited; added tags and fusions are not shown. Residues count along the entry.
UniProt P70211, residues 26-1447: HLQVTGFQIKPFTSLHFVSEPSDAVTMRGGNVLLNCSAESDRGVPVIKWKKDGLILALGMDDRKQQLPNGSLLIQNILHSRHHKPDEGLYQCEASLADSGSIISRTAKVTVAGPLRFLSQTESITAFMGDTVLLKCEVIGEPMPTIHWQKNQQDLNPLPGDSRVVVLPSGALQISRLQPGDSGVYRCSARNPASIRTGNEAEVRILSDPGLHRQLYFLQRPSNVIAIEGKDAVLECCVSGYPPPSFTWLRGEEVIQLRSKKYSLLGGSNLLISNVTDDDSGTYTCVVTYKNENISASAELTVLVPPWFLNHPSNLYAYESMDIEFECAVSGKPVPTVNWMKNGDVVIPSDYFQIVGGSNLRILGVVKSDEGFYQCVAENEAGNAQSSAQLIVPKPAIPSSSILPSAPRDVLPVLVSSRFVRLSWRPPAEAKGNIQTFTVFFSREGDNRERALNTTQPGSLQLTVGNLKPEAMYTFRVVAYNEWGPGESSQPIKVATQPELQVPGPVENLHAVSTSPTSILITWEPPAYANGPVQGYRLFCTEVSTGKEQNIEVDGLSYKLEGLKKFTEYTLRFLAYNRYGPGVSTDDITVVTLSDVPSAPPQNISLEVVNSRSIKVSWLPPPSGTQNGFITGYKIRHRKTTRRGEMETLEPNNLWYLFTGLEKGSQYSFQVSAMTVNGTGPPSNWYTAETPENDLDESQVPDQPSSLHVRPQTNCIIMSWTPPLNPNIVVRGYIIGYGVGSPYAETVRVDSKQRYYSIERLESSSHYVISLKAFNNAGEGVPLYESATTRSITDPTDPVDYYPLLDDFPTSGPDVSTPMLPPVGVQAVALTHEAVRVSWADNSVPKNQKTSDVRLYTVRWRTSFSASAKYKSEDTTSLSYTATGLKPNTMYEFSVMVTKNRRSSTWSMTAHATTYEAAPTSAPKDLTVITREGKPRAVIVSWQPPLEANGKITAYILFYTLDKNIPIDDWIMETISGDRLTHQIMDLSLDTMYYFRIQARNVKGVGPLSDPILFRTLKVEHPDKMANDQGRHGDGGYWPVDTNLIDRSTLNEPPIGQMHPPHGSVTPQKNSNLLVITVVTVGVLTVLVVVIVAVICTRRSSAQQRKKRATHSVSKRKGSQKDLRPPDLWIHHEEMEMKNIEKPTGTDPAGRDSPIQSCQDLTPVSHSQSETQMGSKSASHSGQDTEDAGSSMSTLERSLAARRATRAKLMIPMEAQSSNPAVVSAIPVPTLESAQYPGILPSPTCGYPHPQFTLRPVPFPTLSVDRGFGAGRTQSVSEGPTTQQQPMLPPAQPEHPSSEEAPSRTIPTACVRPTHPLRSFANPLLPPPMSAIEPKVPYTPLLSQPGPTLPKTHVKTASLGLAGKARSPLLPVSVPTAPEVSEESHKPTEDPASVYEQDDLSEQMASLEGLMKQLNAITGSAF

Molecular target: DCC without CRY2 (DCC) (Mus musculus) (UniProt P70211)
Assay: co-IP; myc-tagged and V5-tagged copies co-expressed in HEK293T; cells exposed to blue light pulses (440 nm LED) for 15 min, lysed in PLC buffer (50 mM HEPES pH 7.5, 150 mM NaCl, 1% Triton X-100); IP with anti-V5 antibody on Protein G sepharose, 4 °C, 30 min; blot for myc

“DCC without CRY2 (DCC) (from UniProt P70211 26-1447) (receptor)” was tested, and the binding was “no binding”.
